From the supplement of paper PMC7666118
This is one part of the list.

Chains of the proteins cited; added tags and fusions are not shown. Lines headed by an entry give the natural chain unless they say otherwise; changes in a name come on top.
UniProt P49591: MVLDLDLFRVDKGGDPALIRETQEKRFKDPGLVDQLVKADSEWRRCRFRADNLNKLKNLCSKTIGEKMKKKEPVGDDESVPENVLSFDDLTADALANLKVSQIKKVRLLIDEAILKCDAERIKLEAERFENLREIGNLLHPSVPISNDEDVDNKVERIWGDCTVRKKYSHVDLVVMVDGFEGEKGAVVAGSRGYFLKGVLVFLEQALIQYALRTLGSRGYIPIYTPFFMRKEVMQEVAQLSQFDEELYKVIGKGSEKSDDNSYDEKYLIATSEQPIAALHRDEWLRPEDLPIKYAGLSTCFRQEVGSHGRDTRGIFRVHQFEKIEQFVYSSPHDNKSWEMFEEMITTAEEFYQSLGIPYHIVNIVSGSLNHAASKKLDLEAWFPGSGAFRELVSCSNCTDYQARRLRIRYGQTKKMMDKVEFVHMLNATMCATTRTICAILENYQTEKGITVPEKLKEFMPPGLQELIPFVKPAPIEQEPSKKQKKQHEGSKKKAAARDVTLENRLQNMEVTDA

target: SARS (UniProt P49591); test: dose-dependent thermal stabilisation call (2D-TPP, DLPTP, 10% FDR) (binary (1 = stabilised)); higher = stabilised by the compound; conditions: system: HL-60 intact cells; concentration range 0.04-10 µM
Protocol: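 2D thermal proteome profiling in intact HL-60 cells treated with BRD-3811 (0, 0.04, 0.29, 2, 10 uM) for 90 min at 37 C, then heated 3 min at one of 12 temperatures (42-63.9 C). Soluble protein was quantified by TMT10 MS. The value is the DLPTP call of the paper: dose-dependent thermal stabilisation over all temperatures at 10% FDR (F-test of a dose-response against a flat model); one experiment, one call per tested protein.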

SMILES	dose-dependent thermal stabilisation call
COc1ccc(Cn2ccc3cc(C)c(C(=O)NO)cc32)cc1	inactive: 0
